The target of this assay is T1, carnitine palmitoyl transferase 1a (CPT1a), endogenous in mouse bone marrow-derived macrophages (mouse (endogenous in BMDMs)) (UniProt P97742).
T1 sequence: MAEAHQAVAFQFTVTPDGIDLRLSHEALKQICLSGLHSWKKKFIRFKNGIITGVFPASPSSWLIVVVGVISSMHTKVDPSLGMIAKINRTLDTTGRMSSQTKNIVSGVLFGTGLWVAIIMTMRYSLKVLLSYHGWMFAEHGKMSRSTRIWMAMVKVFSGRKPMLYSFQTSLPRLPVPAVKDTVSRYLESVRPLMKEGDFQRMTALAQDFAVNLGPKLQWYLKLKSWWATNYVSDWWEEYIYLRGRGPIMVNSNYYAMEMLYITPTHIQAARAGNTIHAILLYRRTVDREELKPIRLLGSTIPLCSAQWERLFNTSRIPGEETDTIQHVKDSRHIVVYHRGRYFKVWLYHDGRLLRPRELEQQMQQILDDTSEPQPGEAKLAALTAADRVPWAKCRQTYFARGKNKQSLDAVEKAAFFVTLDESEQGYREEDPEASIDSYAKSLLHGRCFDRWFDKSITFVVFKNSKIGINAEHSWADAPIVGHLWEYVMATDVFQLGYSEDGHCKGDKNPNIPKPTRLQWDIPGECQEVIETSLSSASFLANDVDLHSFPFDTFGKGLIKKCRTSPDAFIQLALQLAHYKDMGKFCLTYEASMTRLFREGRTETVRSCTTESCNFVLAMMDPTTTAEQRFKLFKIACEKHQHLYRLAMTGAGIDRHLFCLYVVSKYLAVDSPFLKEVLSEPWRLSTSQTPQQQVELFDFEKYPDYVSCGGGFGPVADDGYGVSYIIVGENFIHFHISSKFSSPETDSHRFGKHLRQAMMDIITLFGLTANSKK
The assay can be described thus: co-IP; lysates of mouse BMDMs (Rosa26 LSL-MLS-Stat3 with or without Ubc ERT2Cre, 4-OHT for 3 days, then 100 ng/mL LPS for 6 h) in IP lysis buffer; anti-CPT1a antibody at 4 °C overnight, protein A/G-agarose; Western blot. For orientation: A western blot detects proteins with antibodies after separation by electrophoresis.

The text below walks through data of publication PMC8692896.

Results are given in words; binding and its absence hold for the method and conditions named. Binding seen in cells or lysates may run through a third protein. Some binding calls cover weakened binding; strength is not graded here.

B1: ubiquitin-specific peptidase 50 (USP50), endogenous in mouse bone marrow-derived macrophages (enzyme, UniProt Q6P8X6 1-390)
chain: MCFIDMASHRPVPADDFGAYYNLAECADYDSLPESKTQPHFQGVTGLRNLGNTCYMNAILQCLCSVSPLVEYFLSGKYITALKKDCSEVTTAFAYLMTDMWLGDSDCVSPEIFLSAVGSLYPAFLKKTQQDAQEFLIYVLNELHEALKKHCRRRVNEKRTGQSCCRKVPAQETSIITRLFEGQLSYSITCLKCESCTHKNEVFTILSLPIPSDYECSLQDCLQCFFQQDTLTWSNQIYCSFCEIKQEAAVRTTISKVPKIIVFHFKRFDIQGTVKRKLRTDIHYPLTNLDLTPYICPVFRKHPMYNLCAVVNHFGDLDGGHYTAFCKNSVTQAWYSFDDTRVSEIPDTSVQTATAYLLFYSCQPFSIPAQKRKSQDSTPDHCKQAIRKWP
Turning to B1, the binding result is “binds”.
